# Test results reported in the supplement of paper PMC8728848.
# The other results are listed elsewhere or left out.
# B1: R2-fiber (Pseudomonas aeruginosa), Q9S576 (protein)
# chain: HHHHHHKVAKDLVVSLAYQVRTEDGVLVDESPVSAPLDYLHGHGSLISGLETALEGHEVGDKFDVAVGANDAYGQYDENLVQRVPKDVFMGVDELQVGMRFLAETDQGPVPVEITAVEDDHVVVDGNHMLAGQNLKFNVEVVAIREATEEELAHGHVHGAHDHHHDHDHDGCCGGHGHDHGHEHGGEGCCGGKGNGGCGCHENLYFQGVTAGMALAATDIPGLDASKLVSGVLAEQRLPVFARGLATAVSNSSDPNTATVPLMLTNHANGPVAGRYFYIQSMFYPDQNGNASQIATSYNATSEMYVRVSYAANPSIREWLPWQRCDIGGSFTKEADGELPGGVNLDSMVTSGWWSQSFTAQAASGANYPIVRAGLLHVYAASSNFIYQTYQAYDGESFYFRCRHSNTWFPWRRMWHGGDFNPSDYLLKSGFYWNALPGKPATFPPSAHNHDVGQLTSGILPLARGGVGSNTAAGARSTIGAGVPATASLGASGWWRDNDTGLIRQWGQVTCPADADASITFPIPFPTLCLGGYANQTSAFHPGTDASTGFRGATTTTAVIRNGYFAQAVLSWEAFGR
# Columns and labels:
# Experiment in all cases: glycan array binding signal (z-score within array); higher = stronger binding
# Conditions in all cases: glycan notation: IUPAC condensed, linker removed
# GalNAc(b1-4)GlcNAc = biological target: GalNAc(b1-4)GlcNAc
# Procedure, shortened: (§1)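 The binding signal is a Z-score computed within each array. Data were drawn from 3228 arrays in the Consortium for Functional Glycomics database, restricted to those with a known protein sequence. Scores were averaged over arrays of the same protein sequence at different concentrations or buffers, and over linkers, and negative values can be taken as non-binding.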
# [1] = biological target: GalNAc(b1-4)GlcNAc(b1-2)Man
# Procedure, shortened: as §1
# [2] = biological target: GalNAc(b1-4)GlcNAc(b1-2)Man(a1-3)[GalNAc(b1-4)GlcNAc(b1-2)Man(a1-6)]Man(b1-4)GlcNAc(b1-4)GlcNAc
# Procedure, shortened: as §1
# [3] = biological target: GalNAc(b1-4)GlcNAc(b1-3)GalNAc(b1-4)GlcNAc
# Procedure, shortened: as §1
# GalNAc(b1-4)GlcNAc6S = biological target: GalNAc(b1-4)GlcNAc6S
# Procedure, shortened: as §1
# GalNAc(b1-6)GalNAc = biological target: GalNAc(b1-6)GalNAc
# Procedure, shortened: as §1
# GalNAc3S(b1-4)GlcNAc = biological target: GalNAc3S(b1-4)GlcNAc
# Procedure, shortened: as §1
# GalNAc3S(b1-4)GlcNAc3S = biological target: GalNAc3S(b1-4)GlcNAc3S
# Procedure, shortened: as §1
# [4] = biological target: GalNAc3S(b1-4)[Fuc(a1-3)]GlcNAc
# Procedure, shortened: as §1
# GalNAc4S6S(b1-4)GlcNAc = biological target: GalNAc4S6S(b1-4)GlcNAc
# Procedure, shortened: as §1
# GalNAc6S(b1-4)GlcNAc = biological target: GalNAc6S(b1-4)GlcNAc
# Procedure, shortened: as §1
# Glc(a1-4)Glc = biological target: Glc(a1-4)Glc
# Procedure, shortened: as §1
# [5] = biological target: Glc(a1-4)Glc(a1-4)Glc(a1-4)Glc
# Procedure, shortened: as §1
# Glc(a1-6)Glc(a1-6)Glc = biological target: Glc(a1-6)Glc(a1-6)Glc
# Procedure, shortened: as §1
# [6] = biological target: Glc(a1-6)Glc(a1-6)Glc(a1-6)Glc
# Procedure, shortened: as §1
# Glc(b1-4)Glc = biological target: Glc(b1-4)Glc
# Procedure, shortened: as §1
# Glc(b1-6)Glc = biological target: Glc(b1-6)Glc
# Procedure, shortened: as §1
# GlcA(b1-3)Gal = biological target: GlcA(b1-3)Gal
# Procedure, shortened: as §1
# GlcA(b1-3)GlcNAc = biological target: GlcA(b1-3)GlcNAc
# Procedure, shortened: as §1
# GlcA(b1-6)Gal = biological target: GlcA(b1-6)Gal
# Procedure, shortened: as §1
# [7] = biological target: GlcA3S(b1-3)Gal(b1-4)GlcNAc(b1-2)Man
# Procedure, shortened: as §1
# [8] = biological target: GlcA3S(b1-3)Gal(b1-4)GlcNAc(b1-3)Gal(b1-4)Glc
# Procedure, shortened: as §1
# [9] = biological target: GlcNAc(a1-3)Gal(b1-4)GlcNAc
# Procedure, shortened: as §1
# [10] = biological target: GlcNAc(a1-4)Gal(b1-3)GlcNAc
# Procedure, shortened: as §1
# [11] = biological target: GlcNAc(a1-4)Gal(b1-4)GalNAc
# Procedure, shortened: as §1
# [12] = biological target: GlcNAc(a1-4)Gal(b1-4)GlcNAc
# Procedure, shortened: as §1
# [13] = biological target: GlcNAc(a1-4)Gal(b1-4)GlcNAc(b1-3)Gal(b1-4)Glc
# Procedure, shortened: as §1
# [14] = biological target: GlcNAc(a1-4)Gal(b1-4)GlcNAc(b1-3)Gal(b1-4)GlcNAc
# Procedure, shortened: as §1
# [15] = biological target: GlcNAc(a1-4)Gal(b1-4)GlcNAc(b1-3)Gal(b1-4)GlcNAc(b1-3)Gal(b1-4)GlcNAc
# Procedure, shortened: as §1
# [16] = biological target: GlcNAc(a1-4)Gal(b1-4)GlcNAc(b1-3)Gal(b1-4)[Fuc(a1-3)]GlcNAc(b1-3)Gal(b1-4)[Fuc(a1-3)]GlcNAc
# Procedure, shortened: as §1
binder,measurement,setting,value
B1,glycan array binding signal (z-score),GalNAc(b1-4)GlcNAc,-0.093
same,glycan array binding signal (z-score),[1],-0.403
same,glycan array binding signal (z-score),[2],-0.124
same,glycan array binding signal (z-score),[3],-0.502
same,glycan array binding signal (z-score),GalNAc(b1-4)GlcNAc6S,-0.166
same,glycan array binding signal (z-score),GalNAc(b1-6)GalNAc,-0.312
same,glycan array binding signal (z-score),GalNAc3S(b1-4)GlcNAc,-0.587
same,glycan array binding signal (z-score),GalNAc3S(b1-4)GlcNAc3S,-0.926
same,glycan array binding signal (z-score),[4],-0.594
same,glycan array binding signal (z-score),GalNAc4S6S(b1-4)GlcNAc,-0.169
same,glycan array binding signal (z-score),GalNAc6S(b1-4)GlcNAc,0.169
same,glycan array binding signal (z-score),Glc(a1-4)Glc,-0.142
same,glycan array binding signal (z-score),[5],0.279
same,glycan array binding signal (z-score),Glc(a1-6)Glc(a1-6)Glc,-0.204
same,glycan array binding signal (z-score),[6],-0.135
same,glycan array binding signal (z-score),Glc(b1-4)Glc,-0.374
same,glycan array binding signal (z-score),Glc(b1-6)Glc,-0.403
same,glycan array binding signal (z-score),GlcA(b1-3)Gal,0.217
same,glycan array binding signal (z-score),GlcA(b1-3)GlcNAc,-0.73
same,glycan array binding signal (z-score),GlcA(b1-6)Gal,-0.538
same,glycan array binding signal (z-score),[7],-0.121
same,glycan array binding signal (z-score),[8],-0.203
same,glycan array binding signal (z-score),[9],0.199
same,glycan array binding signal (z-score),[10],-0.572
same,glycan array binding signal (z-score),[11],-0.004
same,glycan array binding signal (z-score),[12],-0.455
same,glycan array binding signal (z-score),[13],-0.467
same,glycan array binding signal (z-score),[14],-0.243
same,glycan array binding signal (z-score),[15],-0.664
same,glycan array binding signal (z-score),[16],-0.106

# 2 entries picked at random from the list so far, as already listed:
binder,measurement,setting,value
B1,glycan array binding signal (z-score),GalNAc6S(b1-4)GlcNAc,0.169
same,glycan array binding signal (z-score),GalNAc3S(b1-4)GlcNAc,-0.587
